{"source": "patent US20110021458A1", "about": "“PHARMACEUTICAL COMPOSITIONS CONTAINING AN INCLUSION COMPLEX FORMED BY DISULFIRAM AND A CYCLODEXTRINE, WHICH CAN BE USED IN THE TREATMENT OF ALCOHOL AND COCAINE DEPENDENCE” (priority 2007, published 2011)", "test": "Pharmacokinetics in rats after SC administration (plasma total DDC)", "type": "in vivo, rat", "details": "15 mg/kg of DSF", "protocol": "FIG. 19: Effect of subcutaneous administration in rats, 15 mg/kg of DSF to the form of binary mixtures in water 25:75 (A); in miglyol (B) and (C) DSF free water on the concentrations Plasma total DDC in time.\nIn addition to the histopathological studies in rats pharmacokinetic studies were conducted that measured the plasma concentrations of metabolites of DSF (DDC and MeDDC) after administration SC (FIG. 19) and/or IM (FIG. 20), 15 mg/kg weight of DSF to the form of binary mixtures.\nIt was quantified the plasma concentration of total DDC that corresponds to the sum of the metabolites and MeDDC DDC, and it was used as a parameter for the analysis of the results shown below.", "note": "The name of at least one read-out is uncertain."}
{"smiles": "CCN(CC)C(=S)SSC(=S)N(CC)CC", "note": "[free DSF, 1-(diethylthiocarbamoyldisulfanyl)-N,N-diethyl-methanethioamide]", "values": [{"measurement": "time at which Cmax was reached", "value": "one"}]}
